This is an account of results in patent publication US20110171666A1 (priority 2007, published 2011).

The series in a line: peptide synthesis. As to conditions: lipidation step.

No end group written: not given here.

In turn, QTNDKHKRDTYSSQTNDMHKRDTYAAAAC yielded a step yield of 23%.
